Values from PubChem BioAssay AID1259254 (NCATS, 2017).
Shown is a random part of about 59,000 reagents tested. About 1,550 of them (2.6%) count as active. 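G2 share is only a proxy for re-replication; each gene was hit by three separate siRNAs, and active genes were retested.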 Entries without a mark were called inactive. Not all columns of the deposit are shown. The record does not give: the amount of reagent.

- Assay: 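Genome-wide screen for genes that prevent DNA re-replication in cancer cells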 (primary screen)
- Cell system: human HCT116 colorectal cancer cells
- Reagents: single siRNA against human genes
- Timing: 3 days
- Read-out: 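Imaged Hoechst DNA stain sorts each cell into a cycle phase by DNA amount; per plate, G2 fraction set to 0% for non-targeting and 100% for GMNN siRNA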
- Direction: G2 robust z-score and G2 cells, % of GMNN control: higher = more G2 cells, more excess DNA replication
- Active means: 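Active siRNAs have a G2 robust z of 5 or more median absolute deviations over the median, which in these data means about 38% or higher of GMNN control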

{"Gene": "LOC105372990", "PubChem SID": "SID160725945", "G2 robust z-score": 2.06, "G2 cells, % of GMNN control": 17.5}
{"Gene": "LOC105372990", "PubChem SID": "SID160733987", "G2 robust z-score": -0.887, "G2 cells, % of GMNN control": -3.27}
{"Gene": "LOC105372990", "PubChem SID": "SID160769913", "G2 robust z-score": 0.682, "G2 cells, % of GMNN control": 7.76}
{"Gene": "LINC00922 (long independently transcribed non-coding RNA 922)", "PubChem SID": "SID160763065", "G2 robust z-score": -0.158, "G2 cells, % of GMNN control": 1.85}
{"Gene": "LINC00922 (long independently transcribed non-coding RNA 922)", "PubChem SID": "SID160763066", "G2 robust z-score": -0.709, "G2 cells, % of GMNN control": -2.02}
{"Gene": "LINC00922 (long independently transcribed non-coding RNA 922)", "PubChem SID": "SID160763067", "G2 robust z-score": 2.43, "G2 cells, % of GMNN control": 20}
{"Gene": "HEMGN (hemogen)", "PubChem SID": "SID160743644", "G2 robust z-score": 0.352, "G2 cells, % of GMNN control": 5.45}
{"Gene": "HEMGN (hemogen)", "PubChem SID": "SID160743645", "G2 robust z-score": 0.00928, "G2 cells, % of GMNN control": 3.03}
{"Gene": "HEMGN (hemogen)", "PubChem SID": "SID160743646", "G2 robust z-score": -1.15, "G2 cells, % of GMNN control": -5.13}
{"Gene": "GLA (galactosidase alpha)", "PubChem SID": "SID160771167", "G2 robust z-score": 0.0187, "G2 cells, % of GMNN control": 3.1}
{"Gene": "GLA (galactosidase alpha)", "PubChem SID": "SID160771177", "G2 robust z-score": -0.504, "G2 cells, % of GMNN control": -0.577}
{"Gene": "GLA (galactosidase alpha)", "PubChem SID": "SID160771185", "G2 robust z-score": -0.763, "G2 cells, % of GMNN control": -2.4}

2 entries from above in another layout.
{"Gene":"LINC00922 (long independently transcribed non-coding RNA 922)","PubChem SID":"SID160763067","G2 robust z-score":2.43,"G2 cells, % of GMNN control":20}
{"Gene":"HEMGN (hemogen)","PubChem SID":"SID160743644","G2 robust z-score":0.352,"G2 cells, % of GMNN control":5.45}

The listing continues.
{"Gene": "ZNF532 (zinc finger protein 532)", "PubChem SID": "SID160743220", "G2 robust z-score": 1.04, "G2 cells, % of GMNN control": 10.3}
{"Gene": "ZNF532 (zinc finger protein 532)", "PubChem SID": "SID160743221", "G2 robust z-score": -1.2, "G2 cells, % of GMNN control": -5.47}
{"Gene": "ZNF532 (zinc finger protein 532)", "PubChem SID": "SID160743222", "G2 robust z-score": -0.174, "G2 cells, % of GMNN control": 1.75}
{"Gene": "ACSF3 (acyl-CoA synthetase family member 3)", "PubChem SID": "SID160760703", "G2 robust z-score": -0.165, "G2 cells, % of GMNN control": 1.81}
{"Gene": "ACSF3 (acyl-CoA synthetase family member 3)", "PubChem SID": "SID160760704", "G2 robust z-score": 1.12, "G2 cells, % of GMNN control": 10.9}
{"Gene": "ACSF3 (acyl-CoA synthetase family member 3)", "PubChem SID": "SID160760705", "G2 robust z-score": -0.811, "G2 cells, % of GMNN control": -2.74}
{"Gene": "RCVRN (recoverin)", "PubChem SID": "SID160715762", "G2 robust z-score": 1.3, "G2 cells, % of GMNN control": 12.1}
{"Gene": "RCVRN (recoverin)", "PubChem SID": "SID160715763", "G2 robust z-score": -0.357, "G2 cells, % of GMNN control": 0.454}
{"Gene": "RCVRN (recoverin)", "PubChem SID": "SID160715764", "G2 robust z-score": -0.485, "G2 cells, % of GMNN control": -0.443}
{"Gene": "OR8B12 (olfactory receptor family 8 subfamily B member 12)", "PubChem SID": "SID160732690", "G2 robust z-score": -0.171, "G2 cells, % of GMNN control": 1.76}
{"Gene": "OR8B12 (olfactory receptor family 8 subfamily B member 12)", "PubChem SID": "SID160761370", "G2 robust z-score": 0.000319, "G2 cells, % of GMNN control": 2.97}
{"Gene": "OR8B12 (olfactory receptor family 8 subfamily B member 12)", "PubChem SID": "SID160761372", "G2 robust z-score": -0.594, "G2 cells, % of GMNN control": -1.21}
